Data taken from PubChem BioAssay AID720652, deposited by NCATS (2013).

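CHO reporter cells carrying a RORγ response-element luciferase construct, checked for viability through intracellular ATP luminescence after a 16-hour compound exposure.
Each compound ran as a dilution series from about 0.00059 to 92 µM.
The value is a fitted potency (AC50) for loss of cell ATP, and a lower number means stronger cytotoxic potency.
Calls follow curve class and an activity score: 40–100 is active, 1–39 is inconclusive and 0 is inactive, with the score scaled by fitted log AC50.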

Values are in µM.
All entries here are filed as inconclusive.
These entries are mostly ones the record files as inconclusive; other results of the assay are not listed here.
Potencies fitted to partial, single-point or poorly fitting curves are rough.
Some entries filed as inconclusive have a full curve.
The first word of each remark tells which way the curve ran; it can be opposite to the aim of the assay.
Activity scores are not listed here.

| Compound | fitted potency (µM) | curve |
|---|---|---|
| `Cc1ccc(OP(=O)(Oc2ccc(C)cc2)Oc2ccc(C)cc2)cc1` | 37.58 | cytotoxic, partial curve |
| `CC(C)(C)C(=O)C1C(=O)c2ccccc2C1=O` | 21.13 | cytotoxic, full curve |
| `OC(c1ccc(Cl)cc1)(c1ccc(Cl)cc1)C(Cl)(Cl)Cl` | 66.82 | cytotoxic, single point |
| `N[C@@H](Cc1c[nH]c2ccc(O)cc12)C(=O)O` | 74.98 | cytotoxic, partial curve, poor fit |
| `Cc1ccc2c(c1N)C(=O)c1ccccc1C2=O` | 59.56 | cytotoxic, partial curve |
| `O=C(O)CCl` | 74.98 | rising, partial curve, poor fit |
| `COc1ccc(N=[N+]([O-])c2ccc(OC)cc2)cc1` | 37.58 | cytotoxic, partial curve, poor fit |
| `C[C@@H]1O[C@@H](O[C@@H]2[C@@H](O)[C@H](OCCc3ccc(O)c(O)c3)O[C@H](CO[C@@H]3O[C@H](CO)[C@@H](O)[C@H](O)[C@H]3O)[C@H]2OC(=O)/C=C/c2ccc(O)c(O)c2)[C@H](O)[C@H](O)[C@H]1O` | 74.98 | cytotoxic, partial curve, poor fit |
| `BrCC(Br)(Br)Br` | 33.49 | cytotoxic, partial curve |
| `Clc1cccc(Cl)c1` | 42.16 | cytotoxic, partial curve, poor fit |
| `Cc1c2ccccc2c(C)c2c1ccc1ccccc12` | 29.85 | cytotoxic, partial curve, poor fit |
| `O=C1c2ccccc2C(=O)C1(O)O` | 37.58 | cytotoxic, partial curve |
| `CNc1ccc([N+](=O)[O-])cc1` | 74.98 | cytotoxic, partial curve, poor fit |
| `NC(=O)c1ncn([C@@H]2O[C@H](CO)[C@@H](O)[C@H]2O)n1` | 42.16 | cytotoxic, partial curve |
| `CC1=CC(C)(C)Nc2ccccc21` | 74.98 | rising, partial curve, poor fit |
| `CC(C)(OO)c1ccccc1` | 66.82 | cytotoxic, partial curve |
| `NCCNc1cccc2ccccc12` | 59.56 | cytotoxic, partial curve |
| `CC(/C=C/C=C(C)/C=C/C(=O)O)=C\C=C\C=C(C)\C=C\C=C(C)\C=C\C(=O)O` | 66.82 | cytotoxic, partial curve |
| `O=C1OC2(c3cc(Br)c(O)c(Br)c3Oc3c2cc(Br)c(O)c3Br)c2c(Cl)c(Cl)c(Cl)c(Cl)c21` | 33.49 | cytotoxic, partial curve |
| `O=Nc1ccc(Nc2ccccc2)cc1` | 74.98 | rising, single point |
| `Nc1ccc(Cl)cc1[N+](=O)[O-]` | 42.16 | cytotoxic, partial curve, poor fit |
| `O.O.O.O.O.O.O.O=S(=O)([O-])[O-].[Co+2]` | 33.49 | cytotoxic, partial curve, poor fit |
| `Cc1ccc(N)c(N)c1` | 74.98 | cytotoxic, partial curve, poor fit |
| `Nc1ccc(O)cc1` | 33.49 | cytotoxic, partial curve |
| `Cc1cc(C)cc(OP(=O)(Oc2cc(C)cc(C)c2)Oc2cc(C)cc(C)c2)c1` | 59.56 | cytotoxic, partial curve |
| `Cc1c(C(=O)O)c(O)cc2c1C(=O)c1c(O)c([C@H]3O[C@H](CO)[C@@H](O)[C@H](O)[C@H]3O)c(O)c(O)c1C2=O` | 37.58 | cytotoxic, partial curve |
| `CN=C=S` | 74.98 | rising, partial curve, poor fit |
| `Oc1cccc(O)c1` | 59.56 | cytotoxic, single point |
| `CC(C)(C)c1cc(O)ccc1O` | 18.83 | cytotoxic, partial curve, poor fit |
| `OCC1CO1` (stereo not shown) | 74.98 | rising, partial curve, poor fit |
| `COC(=O)C1=C(C)NC(C)=C(C(=O)OC)C1c1ccccc1[N+](=O)[O-]` | 42.16 | cytotoxic, partial curve |
| `ClC(Cl)=C(c1ccc(Cl)cc1)c1ccc(Cl)cc1` | 74.98 | cytotoxic, single point |
| `NC1=NC(S)C2N=CN=C2N1` (stereo not shown) | 5.956 | cytotoxic, full curve |
| `O=C(O)c1ccc(C(=O)O)cc1` | 74.98 | rising, partial curve, poor fit |
| `COc1cc(-c2ccc(N)c(OC)c2)ccc1N` | 74.98 | cytotoxic, partial curve, poor fit |
| `CCOC(=O)c1ccccc1C(=O)OCC` | 74.98 | cytotoxic, partial curve, poor fit |
| `C=CC(=O)OCCCCCCOC(=O)C=C` | 11.88 | cytotoxic, full curve |
| `CCCCCCCCCCCCCCCC[n+]1ccccc1` | 37.58 | cytotoxic, partial curve |
| `COc1ccc(C(Cl)=C(c2ccc(OC)cc2)c2ccc(OC)cc2)cc1` | 37.58 | cytotoxic, partial curve |

3 of the entries, repeated:

| Compound | fitted potency (µM) | curve |
|---|---|---|
| `COC(=O)C1=C(C)NC(C)=C(C(=O)OC)C1c1ccccc1[N+](=O)[O-]` | 42.16 | cytotoxic, partial curve |
| `Cc1c(C(=O)O)c(O)cc2c1C(=O)c1c(O)c([C@H]3O[C@H](CO)[C@@H](O)[C@H](O)[C@H]3O)c(O)c(O)c1C2=O` | 37.58 | cytotoxic, partial curve |
| `Cc1ccc(N)c(N)c1` | 74.98 | cytotoxic, partial curve, poor fit |